Source: article PMC7948496
No constants are given. Whether binding was seen depends on the method and setting. Binding seen in cells or lysates may run through a third protein. Binding calls can cover weak binding; strength is not graded here. For part of these data: Tags and fused reporters may be left off the sequences shown.

Protein sequences, listed by entry. Tags and fused reporters are not part of them. Lines headed by an entry give the natural chain unless they say otherwise; changes in a name come on top.
UniProt Q9NQB0: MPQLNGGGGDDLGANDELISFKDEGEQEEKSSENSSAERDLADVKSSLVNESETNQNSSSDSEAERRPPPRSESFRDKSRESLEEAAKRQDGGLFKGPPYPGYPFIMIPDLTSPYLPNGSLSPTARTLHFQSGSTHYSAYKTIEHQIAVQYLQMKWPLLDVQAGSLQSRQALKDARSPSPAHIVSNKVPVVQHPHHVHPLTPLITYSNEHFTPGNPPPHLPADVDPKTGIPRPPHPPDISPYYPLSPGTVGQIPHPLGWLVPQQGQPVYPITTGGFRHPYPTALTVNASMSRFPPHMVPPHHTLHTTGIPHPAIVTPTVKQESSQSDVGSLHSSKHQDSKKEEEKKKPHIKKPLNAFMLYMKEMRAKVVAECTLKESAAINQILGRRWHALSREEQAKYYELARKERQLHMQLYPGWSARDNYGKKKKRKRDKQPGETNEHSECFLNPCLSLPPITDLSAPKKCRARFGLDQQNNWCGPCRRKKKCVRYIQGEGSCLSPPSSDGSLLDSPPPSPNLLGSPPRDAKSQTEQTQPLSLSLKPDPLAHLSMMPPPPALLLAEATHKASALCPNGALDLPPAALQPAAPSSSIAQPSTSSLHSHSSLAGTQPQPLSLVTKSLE
UniProt P46531: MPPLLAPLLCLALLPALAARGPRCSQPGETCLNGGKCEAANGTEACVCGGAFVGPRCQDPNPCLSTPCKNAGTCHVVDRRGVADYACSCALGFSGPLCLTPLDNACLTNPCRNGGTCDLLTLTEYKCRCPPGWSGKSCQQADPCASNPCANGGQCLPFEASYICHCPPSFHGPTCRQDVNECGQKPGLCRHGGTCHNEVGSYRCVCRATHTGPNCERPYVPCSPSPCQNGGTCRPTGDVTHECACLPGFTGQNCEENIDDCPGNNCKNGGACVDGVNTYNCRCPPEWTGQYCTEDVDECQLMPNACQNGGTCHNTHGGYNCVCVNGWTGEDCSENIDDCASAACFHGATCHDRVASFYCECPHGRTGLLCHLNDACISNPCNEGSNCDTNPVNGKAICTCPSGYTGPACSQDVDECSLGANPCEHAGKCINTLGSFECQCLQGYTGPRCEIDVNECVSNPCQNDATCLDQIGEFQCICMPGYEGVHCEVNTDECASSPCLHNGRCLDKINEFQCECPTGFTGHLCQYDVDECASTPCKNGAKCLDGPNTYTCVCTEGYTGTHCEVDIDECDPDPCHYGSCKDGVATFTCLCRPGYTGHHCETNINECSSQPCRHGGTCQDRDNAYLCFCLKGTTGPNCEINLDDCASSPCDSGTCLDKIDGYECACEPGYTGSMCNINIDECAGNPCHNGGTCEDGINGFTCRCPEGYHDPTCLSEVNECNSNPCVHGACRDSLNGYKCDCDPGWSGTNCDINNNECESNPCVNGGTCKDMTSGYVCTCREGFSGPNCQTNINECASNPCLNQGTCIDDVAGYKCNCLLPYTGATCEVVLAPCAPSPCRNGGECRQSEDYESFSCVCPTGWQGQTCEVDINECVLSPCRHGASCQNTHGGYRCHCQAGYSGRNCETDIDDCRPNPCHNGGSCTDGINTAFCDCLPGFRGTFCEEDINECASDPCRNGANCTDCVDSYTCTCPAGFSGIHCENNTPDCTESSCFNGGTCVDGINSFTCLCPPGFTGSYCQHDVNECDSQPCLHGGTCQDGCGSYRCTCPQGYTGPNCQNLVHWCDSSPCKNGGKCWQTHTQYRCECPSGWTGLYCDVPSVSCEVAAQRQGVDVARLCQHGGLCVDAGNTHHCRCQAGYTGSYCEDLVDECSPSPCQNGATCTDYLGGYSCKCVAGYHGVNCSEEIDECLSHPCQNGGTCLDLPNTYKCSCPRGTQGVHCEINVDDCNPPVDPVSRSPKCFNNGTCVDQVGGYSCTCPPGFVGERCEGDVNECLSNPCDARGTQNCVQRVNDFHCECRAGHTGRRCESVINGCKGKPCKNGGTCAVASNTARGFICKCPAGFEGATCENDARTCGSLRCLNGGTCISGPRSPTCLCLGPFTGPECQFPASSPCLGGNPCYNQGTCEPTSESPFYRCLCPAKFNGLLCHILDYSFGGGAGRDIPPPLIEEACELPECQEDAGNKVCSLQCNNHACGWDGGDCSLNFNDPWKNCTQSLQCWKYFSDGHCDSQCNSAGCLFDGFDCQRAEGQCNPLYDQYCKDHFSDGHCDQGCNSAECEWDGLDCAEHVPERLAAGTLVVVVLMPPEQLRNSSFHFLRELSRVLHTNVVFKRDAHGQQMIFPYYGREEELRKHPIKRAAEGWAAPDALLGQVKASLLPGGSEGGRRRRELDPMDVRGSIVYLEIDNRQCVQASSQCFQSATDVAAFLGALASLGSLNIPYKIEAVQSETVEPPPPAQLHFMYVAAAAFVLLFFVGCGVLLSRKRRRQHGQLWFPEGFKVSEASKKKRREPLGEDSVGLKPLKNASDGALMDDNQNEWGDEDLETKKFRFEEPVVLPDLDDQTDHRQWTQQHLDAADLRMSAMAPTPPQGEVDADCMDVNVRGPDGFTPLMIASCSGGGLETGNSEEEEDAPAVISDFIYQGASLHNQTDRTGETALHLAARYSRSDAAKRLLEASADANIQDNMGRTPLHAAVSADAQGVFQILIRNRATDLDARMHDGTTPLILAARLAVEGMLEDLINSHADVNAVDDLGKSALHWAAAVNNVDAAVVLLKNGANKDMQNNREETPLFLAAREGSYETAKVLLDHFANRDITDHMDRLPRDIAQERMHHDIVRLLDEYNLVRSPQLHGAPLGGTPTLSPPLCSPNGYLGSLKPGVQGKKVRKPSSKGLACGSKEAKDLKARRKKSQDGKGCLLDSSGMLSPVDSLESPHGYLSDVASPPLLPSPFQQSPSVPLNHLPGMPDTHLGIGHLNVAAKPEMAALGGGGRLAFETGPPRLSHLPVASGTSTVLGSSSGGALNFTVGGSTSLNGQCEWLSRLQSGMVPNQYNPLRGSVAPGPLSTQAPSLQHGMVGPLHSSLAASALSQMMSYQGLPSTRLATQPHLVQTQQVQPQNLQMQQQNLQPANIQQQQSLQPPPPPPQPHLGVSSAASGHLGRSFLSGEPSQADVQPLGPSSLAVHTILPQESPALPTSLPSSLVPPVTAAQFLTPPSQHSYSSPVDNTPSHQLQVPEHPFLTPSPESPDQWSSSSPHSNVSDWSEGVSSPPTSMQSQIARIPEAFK

What was measured:
Assay in all cases: pull-down; GST pull-down of a protein with the different domains of its partner; which partner was the GST fusion is not told; as described previously (ref. 38)
[1] = target: C-terminal domain of JMJD2D (human (HepG2 cDNA)) (UniProt Q6B0I6)
[2] = target: HMG Box domain of TCF4 (human (HepG2 cDNA)) (UniProt Q9NQB0)
[3] = target: ANK domain of NICD1 (human (HepG2 cDNA)) (UniProt P46531)

Molecule	binding [1]	binding [2]	binding [3]
TCF4, construct of the GST pull-down assays (from UniProt Q9NQB0 1-619)	binds	–	–
JMJD2D, construct of the GST pull-down assays (enzyme, UniProt Q6B0I6 1-523) METMKSKANCAQNPNCNIMIFHPTKEEFNDFDKYIAYMESQGAHRAGLAKIIPPKEWKARETYDNISEILIATPLQQVASGRAGVFTQYHKKKKAMTVGEYRHLANSKKYQTPPHQNFEDLERKYWKNRIYNSPIYGADISGSLFDENTKQWNLGHLGTIQDLLEKECGVVIEGVNTPYLYFGMWKTTFAWHTEDMDLYSINYLHLGEPKTWYVVPPEHGQRLERLARELFPGSSRGCGAFLRHKVALISPTVLKENGIPFNRITQEAGEFMVTFPYGYHAGFNHGFNCAEAINFATPRWIDYGKMASQCSCGEARVTFSMDAFVRILQPERYDLWKRGQDRAVVDHMEPRVPASQELSTQKEVQLPRRAALGLRQLPSHWARHSPWPMAARSGTRCHTLVCSSLPRRSAVSGTATQPRAAAVHSSKKPSSTPSSTPGPSAQIIHPSNGRRGRGRPPQKLRAQELTLQTPAKRPLLAGTTCTASGPEPEPLPEDGALMDKPVPLSPGLQHPVKASGCSWAPVP	–	binds	binds
